Measured values published in publication doi:10.1101/2024.07.18.604157.
No constants are given. Whether binding was seen depends on the method and setting. In cells and extracts the contact can be indirect. Some results given as binding are weak or reduced against the parent protein; the word gives no strength.

T1: WTAP as used in the IP assays against the family of protein phosphatases (PPPs) (UniProt Q15007)
T1 sequence: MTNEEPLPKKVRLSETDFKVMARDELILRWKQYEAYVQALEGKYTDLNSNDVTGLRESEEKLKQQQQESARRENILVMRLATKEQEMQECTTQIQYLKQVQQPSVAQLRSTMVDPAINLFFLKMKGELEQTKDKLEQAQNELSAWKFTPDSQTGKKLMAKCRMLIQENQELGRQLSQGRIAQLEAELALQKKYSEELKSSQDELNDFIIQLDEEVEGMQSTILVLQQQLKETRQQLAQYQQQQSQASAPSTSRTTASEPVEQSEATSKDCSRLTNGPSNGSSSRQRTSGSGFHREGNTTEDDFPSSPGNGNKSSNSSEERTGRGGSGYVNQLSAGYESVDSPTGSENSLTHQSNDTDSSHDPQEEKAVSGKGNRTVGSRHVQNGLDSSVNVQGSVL

T2: Wilm's tumor-associated protein (WTAP), endogenous in THP-1-derived macrophages (human (endogenous in THP-1)) (UniProt Q15007)
T2 sequence: T1 sequence

B1: PPP4 as used in the IP assays of WTAP against the family of protein phosphatases (PPPs) (enzyme, UniProt P60510 1-307)
chain: MAEISDLDRQIEQLRRCELIKESEVKALCAKAREILVEESNVQRVDSPVTVCGDIHGQFYDLKELFRVGGDVPETNYLFMGDFVDRGFYSVETFLLLLALKVRYPDRITLIRGNHESRQITQVYGFYDECLRKYGSVTVWRYCTEIFDYLSLSAIIDGKIFCVHGGLSPSIQTLDQIRTIDRKQEVPHDGPMCDLLWSDPEDTTGWGVSPRGAGYLFGSDVVAQFNAANDIDMICRAHQLVMEGYKWHFNETVLTVWSAPNYCYRCGNVAAILELDEHLQKDFIIFEAAPQETRGIPSKKPVADYFL
B2: PPP4, endogenous in THP-1-derived macrophages (enzyme, UniProt P60510 1-307)
chain: B1 chain

Tests used:
[1] = biological target: T1, WTAP as used in the IP assays against the family of protein phosphatases (PPPs); assay: co-IP
[2] = biological target: T2, Wilm's tumor-associated protein (WTAP), endogenous in THP-1-derived macrophages (human (endogenous in THP-1)); assay: co-IP

Row | Binder | binding [1] | binding [2]
1 | B1 | binds | –
2 | B2 | – | binds
